Experimental data taken from article PMC6805867, “Amphiphilic Triazine Polymer Derivatives as Antibacterial And Anti-atopic Agents in Mice Model” (Scientific Reports, 2019).

System: bacteria versus sheep red blood cells
Assay: Cell selectivity, TI (MHC/GM)
Conditions: ratio MHC/GM

SMILES | TI (MHC/GM)
NCCCN(CCCN)c1nc(N)nc(NCCNc2nc(Cl)nc(N(CCCN)CCCN)n2)n1 [TZP1] | 10.7
N=C(N)NCCCN(CCCNC(=N)N)c1nc(N)nc(NCCNc2nc(Cl)nc(N(Cc3ccccc3)Cc3ccccc3)n2)n1 [TZP2] | 70.0
NCCCN(CCCN)c1nc(N)nc(NCCNc2nc(Cl)nc(N(Cc3ccccc3)Cc3ccccc3)n2)n1 [TZP3] | 113.8
NCCCN(CCCN)c1nc(N)nc(NCCNc2nc(NCCNc3nc(Cl)nc(N(Cc4ccccc4)Cc4ccccc4)n3)nc(N(CCCN)CCCN)n2)n1 [TZP4] | 204.8
NCCCN(CCCN)c1nc(Cl)nc(NCCNc2nc(NCCNc3nc(N)nc(NCCC(c4ccccc4)c4ccccc4)n3)nc(N(CCCN)CCCN)n2)n1 [TZP5] | 170.7
N=C(N)NCCCN(CCCNC(=N)N)c1nc(Cl)nc(NCCNc2nc(NCCNc3nc(N)nc(N(CCCN)CCCN)n3)nc(N(Cc3ccccc3)Cc3ccccc3)n2)n1 [TZP6] | 204.8
NCCCN(CCCN)c1nc(N)nc(NCCNc2nc(NCCNc3nc(Cl)nc(N(CCCN)CCCN)n3)nc(N(CCCN)CCCN)n2)n1 [TZP7] | 42.7
NCCCN(CCCN)c1nc(NCCNc2nc(N)nc(N(Cc3ccccc3)Cc3ccccc3)n2)nc(NCCNc2nc(Cl)nc(N(Cc3ccccc3)Cc3ccccc3)n2)n1 [TZP8] | 0.7
N=C(N)NCCCN(CCCNC(=N)N)c1nc(N)nc(NCCNc2nc(NCCNc3nc(Cl)nc(N(CCCNC(=N)N)CCCNC(=N)N)n3)nc(N(Cc3ccccc3)Cc3ccccc3)n2)n1 [TZP9] | 146.3
N=C(N)NCCCN(CCCNC(=N)N)c1nc(Cl)nc(NCCNc2nc(NCCNc3nc(N)nc(NCCC(c4ccccc4)c4ccccc4)n3)nc(N(CCCNC(=N)N)CCCNC(=N)N)n2)n1 [TZP10] | 73.1
N=C(N)NCCCN(CCCNC(=N)N)c1nc(Cl)nc(NCCNc2nc(NCCNc3nc(NCCNc4nc(N)nc(NCCC(c5ccccc5)c5ccccc5)n4)nc(N(CCCNC(=N)N)CCCNC(=N)N)n3)nc(NCCC(c3ccccc3)c3ccccc3)n2)n1 [TZP11] | 1.6
NCCCN(CCCN)c1nc(Cl)nc(NCCNc2nc(NCCNc3nc(NCCNc4nc(N)nc(NCCC(c5ccccc5)c5ccccc5)n4)nc(N(CCCN)CCCN)n3)nc(NCCC(c3ccccc3)c3ccccc3)n2)n1 [TZP12] | 3.3
NCCCN(CCCN)c1nc(N)nc(NCCNc2nc(NCCNc3nc(NCCNc4nc(NCCNc5nc(Cl)nc(N(CCCN)CCCN)n5)nc(N(CCCN)CCCN)n4)nc(N(CCCN)CCCN)n3)nc(N(CCCN)CCCN)n2)n1 [TZP13] | 73.1
CC[C@H](C)[C@H](NC(=O)CN)C(=O)NCC(=O)N[C@@H](C)C(=O)N[C@H](C(=O)N[C@@H](CC(C)C)C(=O)N[C@@H](CCCCN)C(=O)N[C@H](C(=O)N[C@@H](CC(C)C)C(=O)N[C@H](C(=O)N[C@H](C(=O)NCC(=O)N[C@@H](CC(C)C)C(=O)N1CCC[C@H]1C(=O)N[C@@H](C)C(=O)N[C@@H](CC(C)C)C(=O)N[C@H](C(=O)N[C@@H](CO)C(=O)N[C@@H](Cc1c[nH]c2ccccc12)C(=O)N[C@H](C(=O)N[C@@H](CCCCN)C(=O)N[C@@H](CCCNC(=N)N)C(=O)N[C@@H](CCCCN)C(=O)N[C@@H](CCCNC(=N)N)C(=O)N[C@@H](CCC(N)=O)C(=O)N[C@@H](CCC(N)=O)C(N)=O)[C@@H](C)CC)[C@@H](C)CC)[C@@H](C)O)[C@@H](C)O)C(C)C)C(C)C [melittin, reference compound] | 1.1
